Measured values reported in PMC10946520.
These are yes or no findings as the source states them, for the method shown. Some results given as binding are weak or reduced against the parent protein; the word gives no strength.

Sequences of proteins named here, by UniProt entry; tags and fusion partners are left off. Residues count along the entry.
UniProt Q9NWT6: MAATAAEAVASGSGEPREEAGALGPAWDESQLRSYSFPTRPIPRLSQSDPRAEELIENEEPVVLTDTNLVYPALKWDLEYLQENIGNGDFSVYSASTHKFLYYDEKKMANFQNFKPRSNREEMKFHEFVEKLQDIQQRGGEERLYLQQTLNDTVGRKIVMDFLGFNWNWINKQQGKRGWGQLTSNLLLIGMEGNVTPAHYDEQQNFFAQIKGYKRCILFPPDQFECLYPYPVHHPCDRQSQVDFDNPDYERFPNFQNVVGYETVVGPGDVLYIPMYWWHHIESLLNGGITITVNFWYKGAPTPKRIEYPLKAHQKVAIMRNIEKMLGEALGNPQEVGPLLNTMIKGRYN
TRPV3 (220-246) peptide (Q8NET8, residues 220-246): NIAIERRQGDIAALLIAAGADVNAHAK
TRPV3 (229-255) peptide (Q8NET8, residues 229-255): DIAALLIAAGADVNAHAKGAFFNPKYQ

Experiments:
[1] = molecular target: Factor inhibiting hypoxia inducible factor (FIH) (UniProt Q9NWT6); assay: crystal structure; co-crystallisation of FIH with Zn(II), NOG and the peptide; vapor diffusion; both purified
[2] = molecular target: Factor inhibiting hypoxia inducible factor (FIH) (UniProt Q9NWT6); assay: crystal structure; peptide (2 mM final) soaked for 14 h into preformed FIH.zinc(II).NOG crystals in crystallisation buffer with 20 % (v/v) glycerol; both purified

binding [1] | binding [2] | Substance
binds | – | TRPV3 (229-255) peptide (from UniProt Q8NET8 229-255)
– | binds | TRPV3 (220-246) peptide (from UniProt Q8NET8 220-246)
